Test system: human skin model
Assay: cDNA microarray gene expression profiling (Affymetrix) of treated skin equivalents, GeneGO MetaCore analysis
Assay type: cell-based
Procedure: One of the advantages of cDNA microarray is the possibility to observe the expression pattern of the whole genes and compare with different conditions. This is the first study to determine the gene expression profiles of Compound-treated human skin. For the analysis of deregulated gene expression induced by substance Compound, treated and control samples from a human skin model were analyzed with Affymetrix oligonucleotide microarrays. Skin has been among the first organs analysed using DNA-Microarrays. In addition, epidermal keratinocytes have been the target of many studies because they respond to a rich variety of inflammatory and immunmodulating cytokines, hormones, vitamins, ultraviolet (UV) light, toxins and physical injury. Altered gene expression after applying substance Compound was analysed with an Affymetrix system.
For gene expression studies skin equivalents were treated with 50 μL of 2 relevant substance Compound with a concentration of c=50 μM in PBS-buffer/DMSO. Buffer-treated skin equivalents served as controls.
A ratio (log 2) value of zero indicates no regulation, whereas positive (log 2) values indicate an upregulation and negative (log 2) values a downregulation of the relevant gene.
The experiment contains 759 genes with the specified threshold (Appendix A)
GeneGO's Metacore (Pathways and Maps) Software. […]

COc1ccc2c(c1)C(/C=C/C(C)=C/C(=O)O)=CC(C)(C)CO2 [Compound, 5-(7-methoxy-3,3-dimethyl-2,3-dihydro-1-benzoxepin-5-yl)-3-methyl-penta-2,4-dienoic acid]
number of top 100 upregulated genes with at least one strong (high scored) site of PPAR: 14

From patent publication US20140017187A1, “Use of 5-(7-methoxy-3,3-dimethyl-2,3-dihydro-1-benzoxepin-5-yl)-3-methyl-penta-2,4-dienoic acid as a cosmetic” (Merck Patent GmbH, priority 2008, published 2014)
